In PubChem BioAssay AID2551 (National Center for Advancing Translational Sciences (NCATS), 2010):
The whole screen tested about 310,000 compounds, of which about 17,000 (5.5%) were called active. The shares of active, inactive and inconclusive entries below differ from those in the screen. Calls come from the whole dose curve; as a rule, active = well fitted inhibition curve with a large enough effect; inconclusive = small, poorly fitted or top-dose-only effect, or effect the other way; inactive = no such curve, though single readings can be large or run the other way. Potencies of inconclusive entries are doubtful fits and often do not repeat.

Sequences of proteins named here, by UniProt entry; tags and fusion partners are left off. A change or cut given only in a name is not applied to a line headed by its entry.
UniProt P51450: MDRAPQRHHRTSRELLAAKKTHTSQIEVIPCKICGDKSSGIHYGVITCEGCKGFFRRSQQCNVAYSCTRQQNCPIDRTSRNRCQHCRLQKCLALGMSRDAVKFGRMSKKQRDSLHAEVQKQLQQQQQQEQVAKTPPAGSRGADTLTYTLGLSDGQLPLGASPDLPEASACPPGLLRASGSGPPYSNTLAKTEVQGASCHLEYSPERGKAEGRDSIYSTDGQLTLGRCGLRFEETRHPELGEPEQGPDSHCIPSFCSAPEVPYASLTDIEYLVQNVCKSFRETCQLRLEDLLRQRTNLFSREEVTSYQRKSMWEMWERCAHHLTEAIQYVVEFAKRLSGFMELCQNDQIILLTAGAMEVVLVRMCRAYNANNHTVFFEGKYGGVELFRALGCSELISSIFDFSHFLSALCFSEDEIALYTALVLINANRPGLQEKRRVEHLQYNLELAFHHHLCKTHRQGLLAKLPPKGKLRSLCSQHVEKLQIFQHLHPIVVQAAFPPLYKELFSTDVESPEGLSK

Molecular target: Nuclear receptor ROR-gamma (Mus musculus) (UniProt P51450)
Assay: qHTS for inhibitors of ROR gamma transcriptional activity; note: nearly all actives have a fitted effect of over 60% in size
Conditions: Drosophila S2 Gal4-RORgamma UAS-luciferase reporter, 20 h; activity change, negative = inhibition: at 53.6 µM (top of the series)
In short: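 Luminescence from a UAS-regulated Photinus luciferase reporter in stably transfected Drosophila Schneider cells is measured; decreased signal marks ROR gamma inhibition. Fusion expression is induced by 700 uM copper sulfate for 20 hr.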
% is set by controls: 0 for no effect and ±100 for the full control effect; potency is the fitted concentration of half-maximal effect.

Activity change, negative = inhibition, inactive:
S=C(Nc1ccc2c(c1)OCO2)NC1CCN(Cc2ccccc2)CC1 -43.8%
CCOC(=O)C(=O)c1c(-c2ccc(C)cc2)nc2ccccn12 -31.6%
COc1ccc(CCC(C)N2CCC(CO)(Cc3ccccc3)CC2)cc1 (stereo not given) -1.64%
CCc1cc2c(NCCC(=O)O)nc(C)nc2s1 -19.5%
O=C(NC12CC3CC(CC(C3)C1)C2)c1cc([N+](=O)[O-])ccc1N1CCOCC1 13.2%
CC(C)N(Cc1nccn1C)C(=O)c1cc(COc2ccc(F)cc2Cl)on1 -7.94%
c1ccc2[nH]c(CN3CCOCC3)nc2c1 -7.53%
CCOC(=O)c1c(CC(C)C)csc1NC(=O)C(C)C 20.1%
CCOC(=O)c1cc(-c2ccccc2)n(CC(=O)N2CCCC2)c1C -0.39%
C/C(=N/NC(=O)c1ccncc1)C1=C(O)CC(C)(C)CC1=O -26.7%
NS(=O)(=O)c1ccc(NS(=O)(=O)c2ccc(NC(=O)c3ccc(-c4ccccc4)cc3)cc2)cc1 -22.7%
N/C(Cn1nnc(-c2ccccc2)n1)=N\O -28.1%
O=C(Nc1ccccc1)c1ccc(Br)c(S(=O)(=O)Nc2ccccn2)c1 -28.1%
CCN(CC)S(=O)(=O)c1ccc2oc(C(=O)N3CCOCC3)c(C)c2c1 4.35%
O=C(Nc1ccc(Cl)c(Cl)c1)c1cccnc1 33.6%
NC1=NS(=O)(=O)NC1c1ccc(Br)cc1 (stereo not given) -22.6%
COc1ccc(-c2csc(NC3OC(=O)c4ccccc43)n2)cc1 (stereo not given) -24.1%

Potency, active:
O=C(NC(=S)Nc1ccc(N2CCCC2)cc1)c1ccccc1[N+](=O)[O-] 3.98 µM
N#CCC(=O)NNC(=S)Nc1ccccc1C(F)(F)F 11.2 µM
COC(=O)Cc1ccc(NC(=S)N2CCCC(C)C2)cc1 (stereo not given) 12.6 µM
COc1ccc(C/C(C)=N/NC(=S)Nc2ccccc2)cc1 20 µM
Cn1cccc1CNC(=S)Nc1ccccc1F 12.6 µM
O=C(NC1=NCCS1)c1cc2ccccc2o1 7.08 µM
CC(C)(C)C(=O)NC(=S)Nc1ccccc1F 12.6 µM
O=C(N/N=C\c1cc(Br)c(Br)o1)c1cncc(Br)c1 1.41 µM
Cn1c(OCc2cccnc2)nc2c1c(=O)n(Cc1ccc(Br)cc1)c(=O)n2C 3.55 µM

Potency, inconclusive:
Cc1noc(C)c1C(=O)Nc1nc2ccc(Cl)cc2s1 35.5 µM [inhibitor, single point]
O=C(CC1SCCNC1=O)Nc1cccc(Cl)c1 (stereo not given) 5.62 µM [activator, single point]
COc1ccc(CN(C(=O)c2ccccc2OC)C2CCS(=O)(=O)C2)cc1 (stereo not given) 3.55 µM [inhibitor, full curve, poor fit]
COc1cc(/C=N/NC(=O)/C(=C\c2ccc([N+](=O)[O-])cc2)NC(=O)c2ccccc2)cc(OC)c1O 3.98 µM [inhibitor, single point]
O=C(NC1(C(F)(F)F)NC(=O)N(c2ccc(F)cc2)C1=O)c1ccncc1 (stereo not given) 20 µM [activator, partial curve]
COC(=O)c1[nH]c2c(c1C)C(=O)CC(c1cc(OC)c(OC)c(OC)c1)C2 (stereo not given) 15.8 µM [activator, single point]
COc1ccccc1NC(=O)C1=C(C)NC2=C(C(=O)CCC2)C1c1ccc(C)o1 (stereo not given) 0.0891 µM [inhibitor, full curve, poor fit]
CCN(/N=C/c1ccc(N(C)C)cc1)c1nc2ccccc2[nH]1 14.1 µM [inhibitor, single point]
COc1cc(NC(=O)c2cncc(-c3ccc(C#N)cc3)c2)cc(C(=O)Nc2cccc(C(F)(F)F)c2)c1 20 µM [inhibitor, single point]
COc1ccc([N+](=O)[O-])c(S(=O)(=O)c2ccc(Cl)cc2)n1 20 µM [inhibitor, single point]
O=C(CS(=O)(=O)c1ccccc1)Nc1nnc(Cc2ccccc2)s1 12.6 µM [activator, single point]
COc1ccc(-c2cc(C(F)(F)F)n3ncc(C(=O)N4CCCCC4c4cccnc4)c3n2)cc1 (stereo not given) 28.2 µM [inhibitor, single point]
CC(C)CN(C(=O)COC(=O)c1cncc(Br)c1)c1c(N)n(Cc2ccccc2)c(=O)[nH]c1=O 0.126 µM [inhibitor, full curve]
CCCOC(=O)/C(C)=N\NC(=O)c1ccco1 11.2 µM [activator, single point]
COc1ccc(Br)cc1/C=N/n1c(-c2ccccc2)n[nH]c1=S 4.47 µM [inhibitor, partial curve, poor fit]
COC(=O)COc1ccc(S(=O)(=O)NCc2ccncc2)cc1 8.91 µM [inhibitor, partial curve]
O=C1C(c2ccncc2)=C(O)c2ccccc21 12.6 µM [inhibitor, single point]
CC(Sc1nncn1C)C(=O)Nc1nnc(-c2ccccc2)s1 (stereo not given) 0.282 µM [activator, full curve, poor fit]
COc1ccc2cc(C(=O)N3CCc4ccccc43)[nH]c2c1 7.08 µM [inhibitor, partial curve]
CCCC(O)(CCC)C(=O)NN(C(=O)CCl)c1ccccc1 10 µM [inhibitor, partial curve]
CC(=O)c1c(C)oc2c1cc(O)c1ccccc12 35.5 µM [inhibitor, single point]
Cc1noc(C)c1S(=O)(=O)N1CCC(C(=O)Nc2ccccn2)CC1 20 µM [activator, partial curve, poor fit]
Cc1ccc(C(=O)O/N=C(\N)c2ccccn2)c(C)c1 5.01 µM [inhibitor, single point]
O=C(CN1N=C(c2ccccc2)CCC1=O)NCc1ccccc1 12.6 µM [activator, single point]

Two records picked at random from those above:
Potency, inconclusive:
COc1cc(NC(=O)c2cncc(-c3ccc(C#N)cc3)c2)cc(C(=O)Nc2cccc(C(F)(F)F)c2)c1 20 µM [inhibitor, single point]
O=C(NC1(C(F)(F)F)NC(=O)N(c2ccc(F)cc2)C1=O)c1ccncc1 (stereo not given) 20 µM [activator, partial curve]
